# The whole screen tested about 400,000 compounds, of which about 5,500 (1.4%) were called active. The shares of active, inactive and inconclusive entries below differ from those in the screen. Calls come from the whole dose curve; as a rule, active = well fitted cell-killing curve with a large enough effect; inconclusive = small, poorly fitted or top-dose-only effect, or effect the other way; inactive = flat fitted curve, though single readings scatter. Where the call is inconclusive, the potency comes from a doubtful curve fit.
# Experiment: qHTS assay for MDR1-selective chemotherapeutics: Primary screen using the parental adenocarcinoma cell KB-3-1; note: nearly all actives have a fitted effect of over 60% in size
# Conditions: KB-3-1 viability, CellTiter-Glo ATP luminescence, 72 h; activity change, negative = cytotoxic: at 46.1 µM (top of the series)
# Outline: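 Here the drug-naive KB-3-1 line serves as comparator for MDR sub-line selectivity; cells received compound titrations, 72 h at 37 °C, then CellTiter-Glo readout.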
# % is set by controls: 0 for no effect and ±100 for the full control effect; potency is the fitted concentration of half-maximal effect.
Compound,Potency,"activity change, negative = cytotoxic"
O=C(NNC(=O)c1ccc(O)cc1O)c1ccc(-c2ccccc2)cc1,"inconclusive: 25.9 µM [cytotoxic, single point]",–
CCOC(=O)c1ccn(S(=O)(=O)c2ccc(C)cc2)c1-c1ccccc1,"inconclusive: 29.1 µM [cytotoxic, single point]",–
CC(=O)n1c(C=Nc2ccccc2)c(O)c2ccccc21,"inconclusive: 6.51 µM [rising, full curve, poor fit]",–
Cc1cccc(NC(=O)CCS(=O)(=O)c2ccc(Br)cc2)c1,"inconclusive: 2.31 µM [cytotoxic, partial curve, poor fit]",–
Cc1cc(O)cc2c1C1CCC3(C)C(O)CCC3C1C=C2 (configuration not stated),"inconclusive: 25.9 µM [cytotoxic, single point]",–
Cc1ccnn1CC(=O)N/N=C/c1ccc([N+](=O)[O-])s1,"inconclusive: 29.1 µM [cytotoxic, single point]",–
CCOc1ccc(C(=O)c2cn(Cc3ccc(Cl)cc3)c3cc(OC)c(OC)cc3c2=O)cc1,"inconclusive: 14.6 µM [cytotoxic, single point]",–
Cc1cc(N2CCN(c3ccccc3)CC2)nc(NCc2ccccc2)n1,–,inactive: 2.24%
CCN1C(=O)[C@H]2[C@@H](c3ccc(-c4ccc(F)cc4)c(OC)c3)N3CCCC[C@@]3(C(=O)OC)[C@H]2C1=O,"inconclusive: 23.1 µM [cytotoxic, single point]",–
Cc1ccc(-n2ncc3c(=O)n(CC(=O)NCc4ccco4)cnc32)cc1,"inconclusive: 11.6 µM [cytotoxic, partial curve]",–
CCOC(=O)C1=C(C)NC(C)=C(C(=O)OCC)C1c1cc2ccc(C)cc2[nH]c1=O,active: 6.51 µM,–
CCCC(=O)Nc1cc(C)c(NC(=O)c2ccccn2)cn1,–,inconclusive: -34.3% [cytotoxic]
COc1ccc(C(O)Cn2ccsc2=NC(C)=O)cc1 (configuration not stated),"inconclusive: 23.1 µM [cytotoxic, single point]",–
Nc1cc(=O)[nH]c(SCc2ccc(Cl)cc2Cl)n1,"inconclusive: 58 µM [cytotoxic, full curve, poor fit]",–
CC(C)(C)Nc1nc(Nc2ccc([N+](=O)[O-])cc2)nc(NC(C)(C)C)n1,"inconclusive: 32.6 µM [cytotoxic, single point]",–
C=CCOc1ccc2cccc(/C=N/NC(=O)c3cc4cc([N+](=O)[O-])ccc4s3)c2c1,"inconclusive: 20.6 µM [cytotoxic, single point]",–
Cn1cc(C(=O)N/N=C/c2ccc(Br)c([N+](=O)[O-])c2)c2ccccc21,active: 16.4 µM,–
OC(CSc1ccccc1Cl)CN1CCN(c2ccc(F)cc2)CC1 (configuration not stated),"inconclusive: 29.1 µM [cytotoxic, single point]",–
O=C(/C=C/c1ccc(F)cc1)c1ccccc1Br,active: 23.1 µM,–
COCCn1nnnc1C(c1cccc(C(F)(F)F)c1)N1CCN(Cc2ccccc2)CC1 (configuration not stated),–,inactive: -6.83%
ClCc1ncc(-c2ccc(Cl)cc2)o1,"inconclusive: 29.1 µM [cytotoxic, single point]",–
CCOc1ccc(N2C(=O)C3ON(C)C(c4ccc([N+](=O)[O-])cc4)C3C2=O)cc1 (configuration not stated),–,inactive: 11.5%
Cc1cccc(NC(=O)c2ccc(-n3cnc4cccnc43)cc2)c1C,"inconclusive: 11.6 µM [rising, partial curve]",–
C(=N\n1cnnc1)/c1ccc(-c2ccccc2)cc1,"inconclusive: 18.4 µM [cytotoxic, single point]",–

# Grouped by structure, the compounds so far containing a thiophene ring, fused or not (two)
Compound,Potency,"activity change, negative = cytotoxic"
Cc1ccnn1CC(=O)N/N=C/c1ccc([N+](=O)[O-])s1,"inconclusive: 29.1 µM [cytotoxic, single point]",–
C=CCOc1ccc2cccc(/C=N/NC(=O)c3cc4cc([N+](=O)[O-])ccc4s3)c2c1,"inconclusive: 20.6 µM [cytotoxic, single point]",–

# Next structures

Compound,Potency,"activity change, negative = cytotoxic"
COc1ccc(CCNc2nc(N3CCCCC3)nc(N3CCCCC3)n2)cc1OC,"inconclusive: 32.6 µM [cytotoxic, single point]",–
CCn1c(C)c(P(c2ccccc2)c2ccccc2)[n+]2ccccc12,active: 9.2 µM,–
CCOc1ccc(-c2nc(N)ncc2-c2ccc(OC)cc2)c(O)c1,"inconclusive: 29.1 µM [cytotoxic, single point]",–
Fc1ccc([C@@H]2CCNC[C@H]2COc2ccc3c(c2)OCO3)cc1,"inconclusive: 29.1 µM [cytotoxic, single point]",–
O=C1/C(=C\c2ccccc2)CCC/C1=C/c1ccccc1,"inconclusive: 29.1 µM [cytotoxic, single point]",–
CC1(C(=O)NS(=O)(=O)c2ccc(Cl)s2)CCN1C(=O)CCc1ccccc1 (configuration not stated),–,inactive: 0%
COc1cc(NC(=O)c2cccc3c2C(=O)N(C2CCCCC2)C3)cc(OC)c1OC,"inconclusive: 14.6 µM [cytotoxic, partial curve, poor fit]",–
Cc1ccc2oc3nc(C)c(C(=O)O)cc3c(=O)c2c1,"inconclusive: 22.4 µM [cytotoxic, single point]",–
COc1ccc(C=NNC(=O)c2ccccc2OCc2ccc(F)cc2)c(OC)c1,–,inactive: -3.37%
CCOc1ccccc1CNC(=O)c1cc2oc3ccccc3c2n1C,active: 7.31 µM,–
COc1ccc2nc3oc(C(=O)NC4CCN(Cc5ccccc5)CC4)cc3cc2c1,"inconclusive: 35.5 µM [cytotoxic, single point]",–
O=C1COc2ccc(S(=O)(=O)CCC(=O)N3CCN(c4cccc(C(F)(F)F)c4)CC3)cc2N1,"inconclusive: 29.1 µM [cytotoxic, single point]",–
COc1ccc(C2CC(=O)N(CC(=O)NCC3CCCO3)c3ccccc3S2)cc1OC (configuration not stated),–,inactive: 0%
COC(=O)[C@]1(CC(C)C)N[C@H](c2ccc(-c3cccc(Cl)c3)cc2)[C@@H]2C(=O)N(C)C(=O)[C@@H]21,"inconclusive: 25.9 µM [cytotoxic, single point]",–
COc1ccc([C@H]2CC(=O)C=C(/C=C/Cc3ccccc3)C2)cc1,"inconclusive: 29.1 µM [cytotoxic, single point]",–
N#CCc1ccc(NC(=O)c2ccc(CN3CCc4ccccc4C3)cc2)cc1,"inconclusive: 8.2 µM [cytotoxic, partial curve, poor fit]",–
COc1ccc(/C(C)=N/NC(=O)c2cccc(S(=O)(=O)N3CCCC3)c2)c(O)c1,"inconclusive: 4.61 µM [cytotoxic, partial curve, poor fit]",–
CC(C)Oc1ccccc1NC(=O)CSc1nc2ccccc2c(=O)n1C,"inconclusive: 8.2 µM [cytotoxic, partial curve]",–
Cc1c(N/C(=N/S(=O)(=O)c2ccccc2)c2ccc(Cl)cc2)c(=O)n(-c2ccccc2)n1C,–,inactive: 11.6%
COc1ccc(-c2c(C#N)c(N)nc3c2CCCC3)cc1OC,–,inactive: -2.55%
Cc1ccccc1OCc1ccc(-c2nc(C#N)c(NCc3cccnc3)o2)o1,"inconclusive: 16.4 µM [cytotoxic, partial curve]",–
CC(=O)Nc1ccc(Nc2cc(N3CCOCC3)c3nonc3c2[N+](=O)[O-])cc1,–,inconclusive: -5.09%
CCOC(=O)/C=C/C(=O)Nc1ccc(S(=O)(=O)Nc2c(C)cc(C)cc2C)cc1,"inconclusive: 20.6 µM [cytotoxic, single point]",–
CC(C)Cn1c(/C=N/Nc2nc3ccccc3[nH]2)nc2ccccc21,active: 16.4 µM,–

Compound,Potency,"activity change, negative = cytotoxic"
O=C(CN1C(=O)COc2ccc(Cl)cc21)Nc1ccc(F)cc1,–,inactive: 0.531%
CC(=O)N(Cc1c(C)nn(-c2ccccc2)c1Cl)c1ccc(Cl)cc1,–,inactive: -6.2%
O=C(/C=C/c1ccccc1[N+](=O)[O-])c1ccccc1Br,"inconclusive: 29.1 µM [cytotoxic, single point]",–
O=[N+]([O-])c1cccc(C2(O)COc3ccccc3O2)c1 (configuration not stated),–,inactive: -0.165%
CC1(C(=O)Nc2cccnc2)Cc2c(-c3cccc(C(F)(F)F)c3)ccnc2O1 (configuration not stated),–,inactive: 0%
CCCCN1C(=O)C(CC(=O)NCCc2ccccn2)CC(C(=O)N(C)C)=C1C (configuration not stated),"inconclusive: 11.6 µM [rising, partial curve, poor fit]",–
CC(C)N(C(=O)CSc1ccc(S(=O)(=O)N2CCCCC2)cn1)c1ccccc1,"inconclusive: 18.4 µM [cytotoxic, single point]",–
O=c1[nH]cnc2c1ncn2[C@H]1CC[C@@H](CO)O1,"inconclusive: 25.9 µM [rising, single point]",–
Cc1nn(-c2ccccc2)c(-c2ccccc2[N+](=O)[O-])c1C(=O)O,–,inactive: 1.46%
C[C@@H]1CC2[C@@H]3CC[C@H]4CC(=O)CC[C@]4(C)C3=CC[C@]2(C)[C@@]1(O)C(=O)CO (some centres not stated),–,inactive: -4.3%
CCc1sc(NC(C)=O)nc1-c1ccccc1,–,inactive: 0.182%
COC(=O)c1c(SCC(=O)Nc2cc(OC)cc(OC)c2)[nH]c2ccc(C)cc2c1=O,–,inactive: 0%
O=C(CSc1nc2sc3c(c2c(=O)n1-c1ccccc1)CCCC3)N/N=C/c1ccccc1C(=O)O,–,inactive: -0.0238%
CCC1=C(c2ccc(C)cc2)S(=O)(=O)N=C1N1CCC(C(=O)Nc2ccccc2F)CC1,–,inactive: -11.6%
Cc1ccccc1C(=O)Nc1ccnn1C1CCN(C(=O)c2cnsn2)CC1,–,inactive: 4.55%
Cc1ccc(Cn2c(C(=O)NCc3ccccc3Cl)cc3sccc32)cc1,–,inactive: 6.04%
CC(C)COn1c(=S)[nH]c2ccccc2c1=O,–,inactive: 1.65%
C=CCNC(=O)/C(C#N)=C/c1ccc(C(=O)O)cc1,–,inactive: -4.9%
COc1ccc(C(=O)NCCn2cc(SCC(=O)NCC3CCCO3)c3ccccc32)cc1OC (configuration not stated),–,inactive: -6.31%
Cc1cc(OCCCCCNCCO)ccc1Cl,"inconclusive: 20.6 µM [cytotoxic, single point]",–
Cc1ccc(C(=O)N/C(=C/c2ccco2)C(=O)N2CCCCC2)cc1,–,inconclusive: 1.71%
O=C(COC(=O)Cn1nnc(-c2ccccc2)n1)Nc1ccccc1Br,–,inactive: -2.51%
COc1cccc(-c2cc(CNC(=O)[C@H]3O[C@@H](n4ccc(N)nc4=O)[C@H](O)[C@@H]3O)no2)c1,–,inactive: 0.0564%
CC(C)C(N)c1csc(Nc2nncc3ccccc23)n1 (configuration not stated),–,inactive: 3.37%

# From PubChem BioAssay AID1347075 (National Center for Advancing Translational Sciences (NCATS), 2019)
